We go through eleven molecules from US10525115B2 (Immatics Biotechnologies GmbH, priority 2014, dated 2020).

In this series the test system is primary AML samples. The experiment in a line: HLA class I ligandome analysis (W6/32 immunoaffinity purification, LC-MS/MS) of primary AML samples. Set-up: species or system human. The settings on record: for Number of positive AMLs: HLA class I ligandome, AML patients (n=15), count for the HLA ligand (LiTAP) or, on protein lines, for the source protein (LiTAA); for Number of positive AMLs [rep. frequency]: representation frequency of the source protein (LiTAA) in AML patients (n=15).

B1: UBE2G2 (protein, UniProt P60604 2-165, looked up)
Ubiquitin-conjugating enzyme …: AGTALKRLMAEYKQLTLNPPEGIVAGPMNEENFFEWEALIMGPEDTCFEFGVFPAILSFPLDYPLSPPKMRFTCEMFHPNIYPDGRVCISILHAPGDDPMGYESSAERWSPVQSVEKILLSVVSMLAEPNDESGANVDASKMWRDDREQFYKIAKQIVQKSLGL
As to B1, the “Number of positive AMLs” value was 3 and the “Number of positive AMLs [rep. frequency]” value was “[20.0%]”.

B2: ZNF131 (protein, UniProt P52739 1-623, looked up)
Zinc finger protein 131: MEAEETMECLQEFPEHHKMILDRLNEQREQDRFTDITLIVDGHHFKAHKAVLAACSKFFYKFFQEFTQEPLVEIEGVSKMAFRHLIEFTYTAKLMIQGEEEANDVWKAAEFLQMLEAIKALEVRNKENSAPLEENTTGKNEAKKRKIAETSNVITESLPSAESEPVEIEVEIAEGTIEVEDEGIETLEEVASAKQSVKYIQSTGSSDDSALALLADITSKYRQGDRKGQIKEDGCPSDPTSKQVEGIEIVELQLSHVKDLFHCEKCNRSFKLFYHFKEHMKSHSTESFKCEICNKRYLRESAWKQHLNCYHLEEGGVSKKQRTGKKIHVCQYCEKQFDHFGHFKEHLRKHTGEKPFECPNCHERFARNSTLKCHLTACQTGVGAKKGRKKLYECQVCNSVFNSWDQFKDHLVIHTGDKPNHCTLCDLWFMQGNELRRHLSDAHNISERLVTEEVLSVETRVQTEPVTSMTIIEQVGKVHVLPLLQVQVDSAQVTVEQVHPDLLQDSQVHDSHMSELPEQVQVSYLEVGRIQTEEGTEVHVEELHVERVNQMPVEVQTELLEADLDHVTPEIMNQEERESSQADAAEAAREDHEDAEDLETKPTVDSEAEKAENEDRTALPVLE
For B2, the “Number of positive AMLs” value is recorded as 3 and the “Number of positive AMLs [rep. frequency]” value was “[20.0%]”.

B3: HLX (protein, UniProt Q14774 1-488, looked up)
H2.0-like homeobox protein: MFAAGLAPFYASNFSLWSAAYCSSAGPGGCSFPLDPAAVKKPSFCIADILHAGVGDLGAAPEGLAGASAAALTAHLGSVHPHASFQAAARSPLRPTPVVAPSEVPAGFPQRLSPLSAAYHHHHPQQQQQQQQPQQQQPPPPPRAGALQPPASGTRVVPNPHHSGSAPAPSSKDLKFGIDRILSAEFDPKVKEGNTLRDLTSLLTGGRPAGVHLSGLQPSAGQFFASLDPINEASAILSPLNSNPRNSVQHQFQDTFPGPYAVLTKDTMPQTYKRKRSWSRAVFSNLQRKGLEKRFEIQKYVTKPDRKQLAAMLGLTDAQVKVWFQNRRMKWRHSKEAQAQKDKDKEAGEKPSGGAPAADGEQDERSPSRSEGEAESESSDSESLDMAPSDTERTEGSERSLHQTTVIKAPVTGALITASSAGSGGSSGGGGNSFSFSSASSLSSSSTSAGCASSLGGGGASELLPATQPTASSAPKSPEPAQGALGCL
Take B3: the “Number of positive AMLs” value was 3 and the “Number of positive AMLs [rep. frequency]” value is “[20.0%]”.

B4: RENBP (protein, UniProt P51606 1-427, looked up)
N-acylglucosamine 2-epimerase: MSKGLPARQDMEKERETLQAWKERVGQELDRVVAFWMEHSHDQEHGGFFTCLGREGRVYDDLKYVWLQGRQVWMYCRLYRTFERFRHAQLLDAAKAGGEFLLRYARVAPPGKKCAFVLTRDGRPVKVQRTIFSECFYTMAMNELWRATGEVRYQTEAVEMMDQIVHWVQEDASGLGRPQLQGAPAAEPMAVPMMLLNLVEQLGEADEELAGKYAELGDWCARRILQHVQRDGQAVLENVSEGGKELPGCLGRQQNPGHTLEAGWFLLRHCIRKGDPELRAHVIDKFLLLPFHSGWDPDHGGLFYFQDADNFCPTQLEWAMKLWWPHSEAMIAFLMGYSDSGDPVLLRLFYQVAEYTFRQFRDPEYGEWFGYLSREGKVALSIKGGPFKGCFHVPRCLAMCEEMLGALLSRPAPAPSPAPTPACRGAE
Consider B4, for which the “Number of positive AMLs” value came to 3 and the “Number of positive AMLs [rep. frequency]” value was “[20.0%]”.

B5: CCNG1 (protein, UniProt P51959 1-295, looked up)
Cyclin-G1: MIEVLTTTDSQKLLHQLNALLEQESRCQPKVCGLRLIESAHDNGLRMTARLRDFEVKDLLSLTQFFGFDTETFSLAVNLLDRFLSKMKVQPKHLGCVGLSCFYLAVKSIEEERNVPLATDLIRISQYRFTVSDLMRMEKIVLEKVCWKVKATTAFQFLQLYYSLLQENLPLERRNSINFERLEAQLKACHCRIIFSKAKPSVLALSIIALEIQAQKCVELTEGIECLQKHSKINGRDLTFWQELVSKCLTEYSSNKCSKPNVQKLKWIVSGRTARQLKHSYYRITHLPTIPEMVP
Turning to B5, the “Number of positive AMLs” value was 3 and the “Number of positive AMLs [rep. frequency]” value is “[20.0%]”.

B6: CBX2 (protein, UniProt Q14781 1-532, looked up)
Chromobox protein homolog 2: MEELSSVGEQVFAAECILSKRLRKGKLEYLVKWRGWSSKHNSWEPEENILDPRLLLAFQKKEHEKEVQNRKRGKRPRGRPRKLTAMSSCSRRSKLKEPDAPSKSKSSSSSSSSTSSSSSSDEEDDSDLDAKRGPRGRETHPVPQKKAQILVAKPELKDPIRKKRGRKPLPPEQKATRRPVSLAKVLKTARKDLGAPASKLPPPLSAPVAGLAALKAHAKEACGGPSAMATPENLASLMKGMASSPGRGGISWQSSIVHYMNRMTQSQAQAASRLALKAQATNKCGLGLDLKVRTQKGELGMSPPGSKIPKAPSGGAVEQKVGNTGGPPHTHGASRVPAGCPGPQPAPTQELSLQVLDLQSVKNGMPGVGLLARHATATKGVPATNPAPGKGTGSGLIGASGATMPTDTSKSEKLASRAVAPPTPASKRDCVKGSATPSGQESRTAPGEARKAATLPEMSAGEESSSSDSDPDSASPPSTGQNPSVSVQTSQDWKPTRSLIEHVFVTDVTANLITVTVKESPTSVGFFNLRHY
Turning to B6, the “Number of positive AMLs” value was 3 and the “Number of positive AMLs [rep. frequency]” value was “[20.0%]”.

B7: TFCP2 (protein, UniProt Q12800 1-502, looked up)
Alpha-globin transcription …: MAWALKLPLADEVIESGLVQDFDASLSGIGQELGAGAYSMSDVLALPIFKQEESSLPPDNENKILPFQYVLCAATSPAVKLHDETLTYLNQGQSYEIRMLDNRKLGELPEINGKLVKSIFRVVFHDRRLQYTEHQQLEGWRWNRPGDRILDIDIPMSVGIIDPRANPTQLNTVEFLWDPAKRTSVFIQVHCISTEFTMRKHGGEKGVPFRVQIDTFKENENGEYTEHLHSASCQIKVFKPKGADRKQKTDREKMEKRTPHEKEKYQPSYETTILTECSPWPEITYVNNSPSPGFNSSHSSFSLGEGNGSPNHQPEPPPPVTDNLLPTTTPQEAQQWLHRNRFSTFTRLFTNFSGADLLKLTRDDVIQICGPADGIRLFNALKGRMVRPRLTIYVCQESLQLREQQQQQQQQQQKHEDGDSNGTFFVYHAIYLEELTAVELTEKIAQLFSISPCQISQIYKQGPTGIHVLISDEMIQNFQEEACFILDTMKAETNDSYHIILK
For the molecule B7, the “Number of positive AMLs” value stood at 3 and the “Number of positive AMLs [rep. frequency]” value was “[20.0%]”.

B8: NOP14 (protein, UniProt P78316 1-857, looked up)
Nucleolar protein 14: MAKAKKVGARRKASGAPAGARGGPAKANSNPFEVKVNRQKFQILGRKTRHDVGLPGVSRARALRKRTQTLLKEYKERDKSNVFRDKRFGEYNSNMSPEEKMMKRFALEQQRHHEKKSIYNLNEDEELTHYGQSLADIEKHNDIVDSDSDAEDRGTLSAELTAAHFGGGGGLLHKKTQQEGEEREKPKSRKELIEELIAKSKQEKRERQAQREDALELTEKLDQDWKEIQTLLSHKTPKSENRDKKEKPKPDAYDMMVRELGFEMKAQPSNRMKTEAELAKEEQEHLRKLEAERLRRMLGKDEDENVKKPKHMSADDLNDGFVLDKDDRRLLSYKDGKMNVEEDVQEEQSKEASDPESNEEEGDSSGGEDTEESDSPDSHLDLESNVESEEENEKPAKEQRQTPGKGLISGKERAGKATRDELPYTFAAPESYEELRSLLLGRSMEEQLLVVERIQKCNHPSLAEGNKAKLEKLFGFLLEYVGDLATDDPPDLTVIDKLVVHLYHLCQMFPESASDAIKFVLRDAMHEMEEMIETKGRAALPGLDVLIYLKITGLLFPTSDFWHPVVTPALVCLSQLLTKCPILSLQDVVKGLFVCCLFLEYVALSQRFIPELINFLLGILYIATPNKASQGSTLVHPFRALGKNSELLVVSAREDVATWQQSSLSLRWASRLRAPTSTEANHIRLSCLAVGLALLKRCVLMYGSLPSFHAIMGPLQALLTDHLADCSHPQELQELCQSTLTEMESQKQLCRPLTCEKSKPVPLKLFTPRLVKVLEFGRKQGSSKEEQERKRLIHKHKREFKGAVREIRKDNQFLARMQLSEIMERDAERKRKVKQLFNSLATQEGEWKALKRKKFKK
For B8, the “Number of positive AMLs” value came out at 3 and the “Number of positive AMLs [rep. frequency]” value is “[20.0%]”.

B9: TMPRSS3 (protein, UniProt P57727 1-454, looked up)
Transmembrane protease serine …: MGENDPPAVEAPFSFRSLFGLDDLKISPVAPDADAVAAQILSLLPLKFFPIIVIGIIALILALAIGLGIHFDCSGKYRCRSSFKCIELIARCDGVSDCKDGEDEYRCVRVGGQNAVLQVFTAASWKTMCSDDWKGHYANVACAQLGFPSYVSSDNLRVSSLEGQFREEFVSIDHLLPDDKVTALHHSVYVREGCASGHVVTLQCTACGHRRGYSSRIVGGNMSLLSQWPWQASLQFQGYHLCGGSVITPLWIITAAHCVYDLYLPKSWTIQVGLVSLLDNPAPSHLVEKIVYHSKYKPKRLGNDIALMKLAGPLTFNEMIQPVCLPNSEENFPDGKVCWTSGWGATEDGAGDASPVLNHAAVPLISNKICNHRDVYGGIISPSMLCAGYLTGGVDSCQGDSGGPLVCQERRLWKLVGATSFGIGCAEVNKPGVYTRVTSFLDWIHEQMERDLKT
For B9, the “Number of positive AMLs” value is listed as 3 and the “Number of positive AMLs [rep. frequency]” value was “[20.0%]”.

B10: CLEC12A (protein, UniProt Q5QGZ9 1-265, looked up)
C-type lectin domain family …: MSEEVTYADLQFQNSSEMEKIPEIGKFGEKAPPAPSHVWRPAALFLTLLCLLLLIGLGVLASMFHVTLKIEMKKMNKLQNISEELQRNISLQLMSNMNISNKIRNLSTTLQTIATKLCRELYSKEQEHKCKPCPRRWIWHKDSCYFLSDDVQTWQESKMACAAQNASLLKINNKNALEFIKSQSRSYDYWLGLSPEEDSTRGMRVDNIINSSAWVIRNAPDLNNMYCGYINRLYVQYYHCTYKKRMICEKMANPVQLGSTYFREA
For the molecule B10, the “Number of positive AMLs” value came out at 3 and the “Number of positive AMLs [rep. frequency]” value was “[20.0%]”.

B11: HRSP12 (protein, UniProt P52758 2-137, looked up)
2-iminobutanoate/2-iminopropan …: SSLIRRVISTAKAPGAIGPYSQAVLVDRTIYISGQIGMDPSSGQLVSGGVAEEAKQALKNMGEILKAAGCDFTNVVKTTVLLADINDFNTVNEIYKQYFKSNFPARAAYQVAALPKGSRIEIEAVAIQGPLTTASL
For the molecule B11, the “Number of positive AMLs” value is reported as 3 and the “Number of positive AMLs [rep. frequency]” value is “[20.0%]”.
